Laboratory results reported in publication PMC4978974.
Results are given in words; binding and its absence hold for the method and conditions named. In cells and extracts the contact can be indirect. Some entries that bind do so weakly or less than the wild type.

Chains of the proteins cited; added tags and fusions are not shown. Residues count along the entry.
UniProt P10145, residues 21-99: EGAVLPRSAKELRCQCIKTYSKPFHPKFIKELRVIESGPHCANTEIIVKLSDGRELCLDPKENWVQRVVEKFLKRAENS
UniProt P02942: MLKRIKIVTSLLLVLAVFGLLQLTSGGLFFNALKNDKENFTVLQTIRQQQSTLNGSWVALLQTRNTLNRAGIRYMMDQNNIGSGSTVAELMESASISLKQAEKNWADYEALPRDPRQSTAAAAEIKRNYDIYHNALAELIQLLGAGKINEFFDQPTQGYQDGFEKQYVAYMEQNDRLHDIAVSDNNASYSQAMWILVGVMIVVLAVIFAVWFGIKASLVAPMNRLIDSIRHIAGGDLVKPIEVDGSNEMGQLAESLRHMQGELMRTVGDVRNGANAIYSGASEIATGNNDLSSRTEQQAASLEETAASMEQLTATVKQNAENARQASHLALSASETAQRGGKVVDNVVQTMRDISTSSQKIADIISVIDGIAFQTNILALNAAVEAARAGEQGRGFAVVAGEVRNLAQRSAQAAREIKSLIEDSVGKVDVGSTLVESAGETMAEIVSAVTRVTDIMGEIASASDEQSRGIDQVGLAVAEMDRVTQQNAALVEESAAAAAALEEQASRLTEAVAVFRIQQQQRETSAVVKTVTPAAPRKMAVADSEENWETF

Molecular target: recombinant human interleukin-8 (human) (UniProt P10145)
Assay: co-IP; 250 μg protein of E. coli lysate (1% Triton X-100, protease inhibitors) incubated with rhIL-8 (0.5 μg) and mouse monoclonal anti-human IL-8 antibody (1 μg) at 4 °C overnight; precipitated with Protein A/G resin; Western blot for Tsr and IL-8; only the target purified

Question: Which binding does the source give for “Tsr chemoreceptor (methyl-accepting chemotaxis protein) of E. coli (from UniProt P02942 1-551)” here?
Answer: The binding was “binds”.
